In paper doi:10.64898/2025.11.30.691369:
No constants are given. Whether binding was seen depends on the method and setting. Binding seen in cells or lysates may run through a third protein. Where a sequence is shown, tags or fusion partners need not be part of it.

Target: T1, Pikm-1-2xV5 (rice (Oryza sativa)) (UniProt B5UBC1)
T1 sequence: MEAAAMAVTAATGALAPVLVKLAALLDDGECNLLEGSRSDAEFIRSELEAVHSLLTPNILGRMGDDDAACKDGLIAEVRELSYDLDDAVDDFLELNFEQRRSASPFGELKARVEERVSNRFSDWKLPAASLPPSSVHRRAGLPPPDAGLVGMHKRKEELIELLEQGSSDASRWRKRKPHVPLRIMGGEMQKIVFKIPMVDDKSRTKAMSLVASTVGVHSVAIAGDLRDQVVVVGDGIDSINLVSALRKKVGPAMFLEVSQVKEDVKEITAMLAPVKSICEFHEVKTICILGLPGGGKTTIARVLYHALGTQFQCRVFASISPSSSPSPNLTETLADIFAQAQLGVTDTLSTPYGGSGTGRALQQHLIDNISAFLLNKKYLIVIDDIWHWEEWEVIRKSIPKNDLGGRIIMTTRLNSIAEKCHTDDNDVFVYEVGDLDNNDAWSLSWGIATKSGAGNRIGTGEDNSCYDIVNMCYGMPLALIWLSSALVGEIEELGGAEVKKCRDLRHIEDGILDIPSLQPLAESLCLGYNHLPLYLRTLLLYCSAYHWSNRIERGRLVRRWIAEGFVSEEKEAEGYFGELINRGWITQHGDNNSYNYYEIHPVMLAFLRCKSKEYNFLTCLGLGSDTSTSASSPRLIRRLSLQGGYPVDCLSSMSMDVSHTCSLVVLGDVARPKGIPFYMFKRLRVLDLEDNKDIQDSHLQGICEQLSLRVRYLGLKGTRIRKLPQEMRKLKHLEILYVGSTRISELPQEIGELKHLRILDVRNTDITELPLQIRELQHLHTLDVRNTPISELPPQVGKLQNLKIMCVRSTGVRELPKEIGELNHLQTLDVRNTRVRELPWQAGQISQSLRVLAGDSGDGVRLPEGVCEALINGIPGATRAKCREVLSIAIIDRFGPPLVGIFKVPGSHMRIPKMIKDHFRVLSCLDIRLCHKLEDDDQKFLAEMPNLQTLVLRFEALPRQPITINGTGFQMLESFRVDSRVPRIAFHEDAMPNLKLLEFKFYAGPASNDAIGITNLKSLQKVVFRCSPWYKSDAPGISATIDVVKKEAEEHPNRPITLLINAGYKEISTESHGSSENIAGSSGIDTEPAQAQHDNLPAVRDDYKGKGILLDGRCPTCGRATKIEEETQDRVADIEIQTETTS
Assay: co-IP

B1: Rx-HA (receptor, UniProt Q9XGF5 1-937)
chain: MAYAAVTSLMRTIHQSMELTGCDLQPFYEKLKSLRAILEKSCNIMGDHEGLTILEVEIVEVAYTTEDMVDSESRNVFLAQNLEERSRAMWEIFFVLEQALECIDSTVKQWMATSDSMKDLKPQTSSLVSLPEHDVEQPENIMVGRENEFEMMLDQLARGGRELEVVSIVGMGGIGKTTLATKLYSDPCIMSRFDIRAKATVSQEYCVRNVLLGLLSLTSDEPDDQLADRLQKHLKGRRYLVVIDDIWTTEAWDDIKLCFPDCYNGSRILLTTRNVEVAEYASSGKPPHHMRLMNFDESWNLLHKKIFEKEGSYSPEFENIGKQIALKCGGLPLAITVIAGLLSKMGQRLDEWQRIGENVSSVVSTDPEAQCMRVLALSYHHLPSHLKPCFLYFAIFTEDEQISVNELVELWPVEGFLNEEEGKSIEEVATTCINELIDRSLIFIHNFSFRGTIESCGMHDVTRELCLREARNMNFVNVIRGKSDQNSCAQSMQRSFKSRSRIRIHKVEELAWCRNSEAHSIIMLGGFECVTLELSFKLVRVLDLGLNTWPIFPSGVLSLIHLRYLSLRFNPCLQQYQGSKEAVPSSIIDIPLSISSLCYLQTFKLNLPFPSYYPFILPSEILTMPQLRTLCMGWNYLRSHEPTENRLVLKNLQCLNQLNPRYCTGSFFRLFPNLKKLQVFGVPEDFRNSQDLYDFRYLYQLEELTFRLYYPYAACFLKNTAPSGSTQDPLRFQTEILHKEIDFGGTAPPTLLLPPPDAFPQNLKSLTFRGEFSVAWKDLSIVGKLPKLEVLILSWNAFIGKEWEVVEEGFPHLKFLFLDDVYIRYWRASSDHFPYLERVILRDCRNLDSIPRDFADITTLALIDIDYCQQSVVNSAKQIQQDIQDNYGSSIEVHTRHLFIPKSVTTVEDDDDSVTTDEDDDDDDFEKEVASCRNNVE
Q: For B1, which binding is on record?
A: no binding
